Measured values taken from the supplement of paper PMC6411743.
± gives the standard deviation of the averaged measurements. The list shows a part of the results, in another mix than the full data. Small differences around the control level are noise.

The chains behind the UniProt entries cited, without tags or fusion partners. Where a name states a change or a piece, a line headed by the entry shows the natural chain unless it says otherwise.
UniProt Q7L9B9: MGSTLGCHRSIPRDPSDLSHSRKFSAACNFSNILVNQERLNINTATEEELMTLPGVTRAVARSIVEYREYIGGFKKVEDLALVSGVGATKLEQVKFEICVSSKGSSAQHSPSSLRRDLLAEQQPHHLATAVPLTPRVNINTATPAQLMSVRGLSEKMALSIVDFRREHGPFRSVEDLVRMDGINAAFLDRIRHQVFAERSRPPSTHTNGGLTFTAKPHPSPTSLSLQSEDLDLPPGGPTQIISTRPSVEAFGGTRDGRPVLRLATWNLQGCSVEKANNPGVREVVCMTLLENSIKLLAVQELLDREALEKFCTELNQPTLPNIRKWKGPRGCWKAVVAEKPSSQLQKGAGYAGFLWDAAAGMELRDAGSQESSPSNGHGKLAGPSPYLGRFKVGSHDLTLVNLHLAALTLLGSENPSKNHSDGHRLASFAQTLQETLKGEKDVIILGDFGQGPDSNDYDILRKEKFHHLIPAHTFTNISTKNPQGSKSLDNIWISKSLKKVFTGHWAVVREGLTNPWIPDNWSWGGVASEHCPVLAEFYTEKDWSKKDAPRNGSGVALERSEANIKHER
UniProt Q7L266: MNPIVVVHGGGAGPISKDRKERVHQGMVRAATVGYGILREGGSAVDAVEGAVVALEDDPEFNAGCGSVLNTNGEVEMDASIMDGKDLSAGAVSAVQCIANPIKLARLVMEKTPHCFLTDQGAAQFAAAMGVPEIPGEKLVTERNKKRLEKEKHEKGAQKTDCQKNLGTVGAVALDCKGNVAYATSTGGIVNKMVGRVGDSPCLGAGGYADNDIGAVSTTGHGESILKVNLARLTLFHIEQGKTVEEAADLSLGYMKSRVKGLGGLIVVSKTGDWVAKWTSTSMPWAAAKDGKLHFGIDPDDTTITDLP
UniProt Q8IUH4: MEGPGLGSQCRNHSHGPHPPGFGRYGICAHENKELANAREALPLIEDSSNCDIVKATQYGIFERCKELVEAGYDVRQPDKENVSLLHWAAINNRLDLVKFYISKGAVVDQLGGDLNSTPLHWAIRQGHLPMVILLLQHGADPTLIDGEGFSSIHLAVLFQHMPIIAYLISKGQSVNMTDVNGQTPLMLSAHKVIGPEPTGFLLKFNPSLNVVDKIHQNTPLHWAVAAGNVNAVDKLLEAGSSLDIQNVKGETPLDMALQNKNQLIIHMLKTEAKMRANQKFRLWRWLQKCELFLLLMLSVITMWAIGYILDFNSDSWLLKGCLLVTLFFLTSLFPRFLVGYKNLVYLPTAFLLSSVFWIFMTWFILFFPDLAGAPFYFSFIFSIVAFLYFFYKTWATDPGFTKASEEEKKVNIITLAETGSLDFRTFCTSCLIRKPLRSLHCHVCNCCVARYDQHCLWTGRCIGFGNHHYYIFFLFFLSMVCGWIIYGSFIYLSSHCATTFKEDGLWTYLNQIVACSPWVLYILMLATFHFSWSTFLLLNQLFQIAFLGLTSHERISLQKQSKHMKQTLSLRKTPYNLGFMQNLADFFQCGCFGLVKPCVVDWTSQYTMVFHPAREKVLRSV
UniProt Q86U70: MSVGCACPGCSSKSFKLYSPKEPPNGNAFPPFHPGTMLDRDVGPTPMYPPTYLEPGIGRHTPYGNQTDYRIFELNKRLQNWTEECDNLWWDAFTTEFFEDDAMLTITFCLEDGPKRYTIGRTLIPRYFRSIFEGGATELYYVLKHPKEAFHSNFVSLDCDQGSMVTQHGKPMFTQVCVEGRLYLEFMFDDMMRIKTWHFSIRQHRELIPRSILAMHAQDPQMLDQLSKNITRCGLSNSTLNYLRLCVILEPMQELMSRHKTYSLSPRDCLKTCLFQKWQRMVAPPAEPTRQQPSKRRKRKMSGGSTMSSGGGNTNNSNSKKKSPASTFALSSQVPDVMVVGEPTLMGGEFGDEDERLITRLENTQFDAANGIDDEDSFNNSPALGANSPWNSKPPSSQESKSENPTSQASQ
UniProt Q7L2Z9: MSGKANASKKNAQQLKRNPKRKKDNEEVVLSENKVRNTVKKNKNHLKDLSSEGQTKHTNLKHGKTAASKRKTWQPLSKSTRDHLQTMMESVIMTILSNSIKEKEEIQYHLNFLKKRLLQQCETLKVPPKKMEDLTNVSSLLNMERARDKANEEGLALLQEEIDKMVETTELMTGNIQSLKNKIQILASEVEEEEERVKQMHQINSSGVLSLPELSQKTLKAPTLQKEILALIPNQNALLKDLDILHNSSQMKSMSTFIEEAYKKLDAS
UniProt Q86T24: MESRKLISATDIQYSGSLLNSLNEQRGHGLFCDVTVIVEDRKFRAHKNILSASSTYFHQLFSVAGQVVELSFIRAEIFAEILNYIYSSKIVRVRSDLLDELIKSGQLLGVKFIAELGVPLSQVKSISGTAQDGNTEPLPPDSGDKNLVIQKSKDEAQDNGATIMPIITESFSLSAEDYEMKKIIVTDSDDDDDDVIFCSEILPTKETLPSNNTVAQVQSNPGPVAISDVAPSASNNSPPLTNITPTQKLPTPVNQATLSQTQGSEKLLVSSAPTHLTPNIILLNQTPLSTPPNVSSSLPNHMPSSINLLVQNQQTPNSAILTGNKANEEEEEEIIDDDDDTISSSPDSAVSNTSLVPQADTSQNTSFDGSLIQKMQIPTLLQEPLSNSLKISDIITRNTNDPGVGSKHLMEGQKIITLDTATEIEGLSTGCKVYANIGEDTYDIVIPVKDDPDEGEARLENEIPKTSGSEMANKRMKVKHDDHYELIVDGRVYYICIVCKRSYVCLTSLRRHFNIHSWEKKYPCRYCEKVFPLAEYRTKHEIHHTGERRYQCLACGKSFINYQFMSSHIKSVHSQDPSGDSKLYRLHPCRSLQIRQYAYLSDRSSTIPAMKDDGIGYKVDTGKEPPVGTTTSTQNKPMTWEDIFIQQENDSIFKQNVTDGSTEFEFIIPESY
UniProt Q6PIJ6: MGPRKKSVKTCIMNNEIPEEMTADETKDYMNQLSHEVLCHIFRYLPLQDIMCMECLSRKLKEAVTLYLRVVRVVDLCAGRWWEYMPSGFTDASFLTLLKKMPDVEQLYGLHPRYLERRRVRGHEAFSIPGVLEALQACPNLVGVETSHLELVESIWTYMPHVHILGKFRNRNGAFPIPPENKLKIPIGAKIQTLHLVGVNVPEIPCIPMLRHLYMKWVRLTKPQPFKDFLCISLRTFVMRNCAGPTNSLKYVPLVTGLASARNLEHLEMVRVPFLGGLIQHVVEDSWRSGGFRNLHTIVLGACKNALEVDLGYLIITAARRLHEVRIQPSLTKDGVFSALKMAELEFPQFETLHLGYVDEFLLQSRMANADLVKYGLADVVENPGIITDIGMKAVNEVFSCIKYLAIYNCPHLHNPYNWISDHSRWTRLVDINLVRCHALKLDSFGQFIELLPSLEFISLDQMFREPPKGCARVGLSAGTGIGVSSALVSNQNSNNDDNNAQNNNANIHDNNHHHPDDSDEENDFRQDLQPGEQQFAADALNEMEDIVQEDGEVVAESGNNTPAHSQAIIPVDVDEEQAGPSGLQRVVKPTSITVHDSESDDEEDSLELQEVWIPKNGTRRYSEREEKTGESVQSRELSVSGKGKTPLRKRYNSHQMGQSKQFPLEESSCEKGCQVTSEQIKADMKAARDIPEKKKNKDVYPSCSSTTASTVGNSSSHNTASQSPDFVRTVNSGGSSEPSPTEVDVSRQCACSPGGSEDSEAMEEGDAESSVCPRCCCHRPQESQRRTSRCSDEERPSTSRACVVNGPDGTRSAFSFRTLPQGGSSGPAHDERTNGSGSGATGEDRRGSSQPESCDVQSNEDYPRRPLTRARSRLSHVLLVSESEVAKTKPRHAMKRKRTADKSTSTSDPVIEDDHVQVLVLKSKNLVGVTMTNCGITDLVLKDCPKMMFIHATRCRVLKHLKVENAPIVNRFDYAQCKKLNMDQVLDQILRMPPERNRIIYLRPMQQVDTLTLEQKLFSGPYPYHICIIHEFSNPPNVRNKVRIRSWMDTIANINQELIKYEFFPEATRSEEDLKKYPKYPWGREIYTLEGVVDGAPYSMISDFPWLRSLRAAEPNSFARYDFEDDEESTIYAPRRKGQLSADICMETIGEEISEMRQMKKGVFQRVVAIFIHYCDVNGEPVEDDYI
UniProt Q86WR0: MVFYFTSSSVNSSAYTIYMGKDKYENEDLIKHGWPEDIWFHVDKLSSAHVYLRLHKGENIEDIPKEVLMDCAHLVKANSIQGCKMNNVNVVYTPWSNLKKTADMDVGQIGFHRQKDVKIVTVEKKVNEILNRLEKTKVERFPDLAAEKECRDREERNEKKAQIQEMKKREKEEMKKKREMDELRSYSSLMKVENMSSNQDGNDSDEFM
UniProt Q8IUH3: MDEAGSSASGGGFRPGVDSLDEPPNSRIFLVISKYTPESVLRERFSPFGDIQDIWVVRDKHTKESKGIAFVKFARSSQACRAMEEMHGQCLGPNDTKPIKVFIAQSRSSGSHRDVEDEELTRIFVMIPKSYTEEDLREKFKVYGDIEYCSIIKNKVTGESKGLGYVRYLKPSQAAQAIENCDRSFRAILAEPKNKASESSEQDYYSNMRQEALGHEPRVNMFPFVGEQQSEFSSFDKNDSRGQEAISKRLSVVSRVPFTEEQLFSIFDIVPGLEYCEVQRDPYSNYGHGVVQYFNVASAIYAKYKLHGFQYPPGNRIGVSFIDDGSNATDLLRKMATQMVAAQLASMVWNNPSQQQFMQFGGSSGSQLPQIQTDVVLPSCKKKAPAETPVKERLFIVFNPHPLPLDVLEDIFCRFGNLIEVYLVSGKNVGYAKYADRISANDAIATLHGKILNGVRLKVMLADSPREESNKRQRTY
UniProt Q86V21: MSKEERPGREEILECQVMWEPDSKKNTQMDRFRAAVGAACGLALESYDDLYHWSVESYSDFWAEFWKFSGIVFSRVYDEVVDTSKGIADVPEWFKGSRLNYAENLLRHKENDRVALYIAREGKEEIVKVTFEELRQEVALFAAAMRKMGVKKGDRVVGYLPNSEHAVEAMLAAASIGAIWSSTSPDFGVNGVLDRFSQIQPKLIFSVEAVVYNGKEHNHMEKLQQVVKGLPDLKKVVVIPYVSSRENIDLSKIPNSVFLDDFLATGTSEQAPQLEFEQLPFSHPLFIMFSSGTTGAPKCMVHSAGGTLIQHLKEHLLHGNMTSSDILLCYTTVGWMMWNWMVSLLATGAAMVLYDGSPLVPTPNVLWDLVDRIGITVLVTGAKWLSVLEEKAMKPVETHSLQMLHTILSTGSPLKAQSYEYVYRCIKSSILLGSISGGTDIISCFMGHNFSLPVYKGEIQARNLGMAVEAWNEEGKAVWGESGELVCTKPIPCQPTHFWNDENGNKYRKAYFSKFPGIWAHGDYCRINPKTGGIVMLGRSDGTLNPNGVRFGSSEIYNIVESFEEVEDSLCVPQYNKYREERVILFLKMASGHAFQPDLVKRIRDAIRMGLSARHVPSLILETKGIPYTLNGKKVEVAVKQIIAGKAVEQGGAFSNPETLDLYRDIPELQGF
UniProt Q86U28: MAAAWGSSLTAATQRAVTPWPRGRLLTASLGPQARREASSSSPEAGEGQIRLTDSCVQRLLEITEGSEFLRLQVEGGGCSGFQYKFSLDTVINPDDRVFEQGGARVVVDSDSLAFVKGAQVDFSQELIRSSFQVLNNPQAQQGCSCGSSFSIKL
UniProt Q6VY07, whole entry, looked up: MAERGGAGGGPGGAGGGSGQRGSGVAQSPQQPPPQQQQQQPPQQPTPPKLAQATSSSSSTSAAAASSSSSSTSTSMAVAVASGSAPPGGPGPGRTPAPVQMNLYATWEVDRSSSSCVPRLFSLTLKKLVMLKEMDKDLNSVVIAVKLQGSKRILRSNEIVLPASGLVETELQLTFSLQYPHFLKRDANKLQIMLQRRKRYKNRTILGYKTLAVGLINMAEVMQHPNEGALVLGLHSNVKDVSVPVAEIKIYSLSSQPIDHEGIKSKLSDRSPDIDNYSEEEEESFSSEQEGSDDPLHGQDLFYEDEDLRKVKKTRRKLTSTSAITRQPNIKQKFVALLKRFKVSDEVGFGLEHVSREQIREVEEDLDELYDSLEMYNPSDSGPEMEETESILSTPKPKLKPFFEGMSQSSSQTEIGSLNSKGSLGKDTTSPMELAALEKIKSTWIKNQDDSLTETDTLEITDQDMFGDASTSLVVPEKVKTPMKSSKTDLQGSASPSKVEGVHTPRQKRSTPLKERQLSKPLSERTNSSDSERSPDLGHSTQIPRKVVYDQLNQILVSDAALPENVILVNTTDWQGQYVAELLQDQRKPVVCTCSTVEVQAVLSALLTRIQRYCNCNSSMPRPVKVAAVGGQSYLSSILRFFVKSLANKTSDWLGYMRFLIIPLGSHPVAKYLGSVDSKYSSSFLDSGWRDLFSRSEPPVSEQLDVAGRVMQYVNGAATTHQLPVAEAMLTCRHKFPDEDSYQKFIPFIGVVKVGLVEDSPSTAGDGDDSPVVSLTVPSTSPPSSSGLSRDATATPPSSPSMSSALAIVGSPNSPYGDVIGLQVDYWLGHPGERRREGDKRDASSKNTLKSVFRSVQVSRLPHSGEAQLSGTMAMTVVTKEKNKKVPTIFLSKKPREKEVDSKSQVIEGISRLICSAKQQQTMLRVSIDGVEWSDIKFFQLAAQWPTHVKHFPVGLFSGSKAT

Compound: Nc1ncnc2c1ncn2[C@@H]1O[C@H](COP(=O)(O)OP(=O)(O)OP(=O)(O)O)[C@@H](O)[C@H]1O [adenosine triphosphate]
Test: NP40-soluble protein abundance relative to vehicle (solubility fold change) (ratio); higher = more soluble protein in presence of ATP
Summary of the method: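 Each value is a fold change relative to the detergent-processed vehicle, calculated per replicate from vsn-normalised intensities. Jurkat crude lysate received eight concentrations (0.1 to 10 mM) for 10 min at room temperature and 3 min at 37 °C, then was solubilised in 0.8% NP40 with benzonase (60 min, 4 °C). The ultracentrifuged supernatant was TMT-labelled and run by LC-MS/MS in three independent experiments.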

WDR59 (UniProt Q6PJI9)
NP40-soluble protein abundance (concentration: 0.1mM): 1.01 ± 0.057 | NP40-soluble protein abundance (concentration: 0.5mM): 1.06 ± 0.079

EEPD1 (UniProt Q7L9B9)
NP40-soluble protein abundance (concentration: 0.1mM): 1.24 ± 0.32 | NP40-soluble protein abundance (concentration: 0.5mM): 1.06 ± 0.1

UniProt Q86W92 and related entries
NP40-soluble protein abundance (concentration: 0.1mM): 1.04 ± 0.04 | NP40-soluble protein abundance (concentration: 0.5mM): 1.07 ± 0.026

ASRGL1 (UniProt Q7L266)
NP40-soluble protein abundance (concentration: 0.1mM): 1.02 ± 0.012 | NP40-soluble protein abundance (concentration: 0.5mM): 1 ± 0.06

UniProt Q8IUI8 and related entries
NP40-soluble protein abundance (concentration: 0.1mM): 1.07 ± 0.098 | NP40-soluble protein abundance (concentration: 0.5mM): 1.05 ± 0.084

UniProt Q75QN2 and related entries
NP40-soluble protein abundance (concentration: 0.1mM): 1.05 ± 0.023 | NP40-soluble protein abundance (concentration: 0.5mM): 1.044 ± 0.0037

LPCAT2 (UniProt Q7L5N7)
NP40-soluble protein abundance (concentration: 0.1mM): 0.967 ± 0.11 | NP40-soluble protein abundance (concentration: 0.5mM): 0.957 ± 0.2

ZDHHC13 (UniProt Q8IUH4)
NP40-soluble protein abundance (concentration: 0.1mM): 1.01 ± 0.071 | NP40-soluble protein abundance (concentration: 0.5mM): 1.03 ± 0.037

UniProt Q6UUV7 and related entries
NP40-soluble protein abundance (concentration: 0.1mM): 1.02 ± 0.024 | NP40-soluble protein abundance (concentration: 0.5mM): 0.957 ± 0.11

UniProt Q7Z2W9 and related entries
NP40-soluble protein abundance (concentration: 0.1mM): 1.08 ± 0.17 | NP40-soluble protein abundance (concentration: 0.5mM): 1.03 ± 0.19

UniProt Q6ZNJ1 and related entries
NP40-soluble protein abundance (concentration: 0.1mM): 1.04 ± 0.06 | NP40-soluble protein abundance (concentration: 0.5mM): 1.04 ± 0.035

METAP1D (UniProt Q6UB28)
NP40-soluble protein abundance (concentration: 0.1mM): 1.06 ± 0.067 | NP40-soluble protein abundance (concentration: 0.5mM): 0.911 ± 0.12

UniProt Q7Z392
NP40-soluble protein abundance (concentration: 0.1mM): 1.02 ± 0.13 | NP40-soluble protein abundance (concentration: 0.5mM): 1.05 ± 0.073

LDB1 (UniProt Q86U70)
NP40-soluble protein abundance (concentration: 0.1mM): 1.03 ± 0.057 | NP40-soluble protein abundance (concentration: 0.5mM): 1 ± 0.059

CENPQ (UniProt Q7L2Z9)
NP40-soluble protein abundance (concentration: 0.1mM): 0.913 ± 0.069 | NP40-soluble protein abundance (concentration: 0.5mM): 0.962 ± 0.15

ZBTB33 (UniProt Q86T24)
NP40-soluble protein abundance (concentration: 0.1mM): 1.03 ± 0.023 | NP40-soluble protein abundance (concentration: 0.5mM): 1.01 ± 0.024

UniProt Q6ZN55 and related entries
NP40-soluble protein abundance (concentration: 0.1mM): 1.04 ± 0.11 | NP40-soluble protein abundance (concentration: 0.5mM): 1.03 ± 0.22

TRIM65 (UniProt Q6PJ69)
NP40-soluble protein abundance (concentration: 0.1mM): 1.07 ± 0.061 | NP40-soluble protein abundance (concentration: 0.5mM): 1 ± 0.059

UniProt Q86VX2 and related entries
NP40-soluble protein abundance (concentration: 0.1mM): 0.996 ± 0.051 | NP40-soluble protein abundance (concentration: 0.5mM): 0.887 ± 0.018

UniProt Q86VN1 and related entries
NP40-soluble protein abundance (concentration: 0.1mM): 1.03 ± 0.078 | NP40-soluble protein abundance (concentration: 0.5mM): 1.01 ± 0.061

UniProt Q6ZT12 and related entries
NP40-soluble protein abundance (concentration: 0.1mM): 1.02 ± 0.044 | NP40-soluble protein abundance (concentration: 0.5mM): 1.03 ± 0.042

TMED8 (UniProt Q6PL24)
NP40-soluble protein abundance (concentration: 0.1mM): 1.01 ± 0.027 | NP40-soluble protein abundance (concentration: 0.5mM): 1.02 ± 0.043

NCAPG2 (UniProt Q86XI2)
NP40-soluble protein abundance (concentration: 0.1mM): 1.04 ± 0.051 | NP40-soluble protein abundance (concentration: 0.5mM): 1.02 ± 0.013

UniProt Q86TP1 and related entries
NP40-soluble protein abundance (concentration: 0.1mM): 1.03 ± 0.016 | NP40-soluble protein abundance (concentration: 0.5mM): 0.976 ± 0.036

TBC1D10C (UniProt Q8IV04)
NP40-soluble protein abundance (concentration: 0.1mM): 1.06 ± 0.013 | NP40-soluble protein abundance (concentration: 0.5mM): 0.895 ± 0.14

UniProt Q6Y1H2
NP40-soluble protein abundance (concentration: 0.1mM): 1.06 ± 0.038 | NP40-soluble protein abundance (concentration: 0.5mM): 1.02 ± 0.065

UniProt Q6PIJ6 and related entries
NP40-soluble protein abundance (concentration: 0.1mM): 1.002 ± 0.0028 | NP40-soluble protein abundance (concentration: 0.5mM): 1.02 ± 0.032

UniProt Q86SK9 and related entries
NP40-soluble protein abundance (concentration: 0.1mM): 0.901 ± 0.057 | NP40-soluble protein abundance (concentration: 0.5mM): 0.926 ± 0.028

UniProt Q6VMQ6 and related entries
NP40-soluble protein abundance (concentration: 0.1mM): 0.976 ± 0.023 | NP40-soluble protein abundance (concentration: 0.5mM): 0.952 ± 0.048

UniProt Q8IUX7
NP40-soluble protein abundance (concentration: 0.1mM): 0.983 ± 0.056 | NP40-soluble protein abundance (concentration: 0.5mM): 0.84 ± 0.31

CCDC25 (UniProt Q86WR0)
NP40-soluble protein abundance (concentration: 0.1mM): 1.02 ± 0.039 | NP40-soluble protein abundance (concentration: 0.5mM): 1.02 ± 0.068

UniProt Q8IVB4
NP40-soluble protein abundance (concentration: 0.1mM): 0.932 ± 0.21 | NP40-soluble protein abundance (concentration: 0.5mM): 0.832 ± 0.021

UniProt Q86XN7 and related entries
NP40-soluble protein abundance (concentration: 0.1mM): 0.943 ± 0.098 | NP40-soluble protein abundance (concentration: 0.5mM): 0.905 ± 0.14

UniProt Q8IUZ5 and related entries
NP40-soluble protein abundance (concentration: 0.1mM): 1.08 ± 0.16 | NP40-soluble protein abundance (concentration: 0.5mM): 0.978 ± 0.12

UniProt Q86TI0 and related entries
NP40-soluble protein abundance (concentration: 0.1mM): 1.032 ± 0.0083 | NP40-soluble protein abundance (concentration: 0.5mM): 1.033 ± 0.0094

UniProt Q7Z569 and related entries
NP40-soluble protein abundance (concentration: 0.1mM): 1.01 ± 0.043 | NP40-soluble protein abundance (concentration: 0.5mM): 1.01 ± 0.05

UniProt Q7Z3C6 and related entries
NP40-soluble protein abundance (concentration: 0.1mM): 1.04 ± 0.035 | NP40-soluble protein abundance (concentration: 0.5mM): 0.989 ± 0.047

LYSMD2 (UniProt Q8IV50)
NP40-soluble protein abundance (concentration: 0.1mM): 0.952 ± 0.012 | NP40-soluble protein abundance (concentration: 0.5mM): 0.946 ± 0.12

MICAL3 (UniProt Q7RTP6)
NP40-soluble protein abundance (concentration: 0.1mM): 1.05 ± 0.093 | NP40-soluble protein abundance (concentration: 0.5mM): 0.959 ± 0.018

UniProt Q7Z6K3 and related entries
NP40-soluble protein abundance (concentration: 0.1mM): 1.02 ± 0.034 | NP40-soluble protein abundance (concentration: 0.5mM): 1.02 ± 0.097

UniProt Q8IUH3 and related entries
NP40-soluble protein abundance (concentration: 0.1mM): 1.01 ± 0.043 | NP40-soluble protein abundance (concentration: 0.5mM): 1.03 ± 0.077

AACS (UniProt Q86V21)
NP40-soluble protein abundance (concentration: 0.1mM): 1.04 ± 0.038 | NP40-soluble protein abundance (concentration: 0.5mM): 1.01 ± 0.095

SAMD1 (UniProt Q6SPF0)
NP40-soluble protein abundance (concentration: 0.1mM): 0.947 ± 0.081 | NP40-soluble protein abundance (concentration: 0.5mM): 0.886 ± 0.059

PALB2 (UniProt Q86YC2)
NP40-soluble protein abundance (concentration: 0.1mM): 0.984 ± 0.15 | NP40-soluble protein abundance (concentration: 0.5mM): 0.944 ± 0.12

ISCA2 (UniProt Q86U28)
NP40-soluble protein abundance (concentration: 0.1mM): 1.03 ± 0.052 | NP40-soluble protein abundance (concentration: 0.5mM): 0.996 ± 0.056

RSRC2 (UniProt Q7L4I2)
NP40-soluble protein abundance (concentration: 0.1mM): 1.1 ± 0.046 | NP40-soluble protein abundance (concentration: 0.5mM): 1.26 ± 0.12

UniProt Q7Z2E3 and related entries
NP40-soluble protein abundance (concentration: 0.1mM): 0.976 ± 0.051 | NP40-soluble protein abundance (concentration: 0.5mM): 1.01 ± 0.096

Q76L82 and related entries (UniProt Q8IXJ9+Q76L82)
NP40-soluble protein abundance (concentration: 0.1mM): 1.02 ± 0.15 | NP40-soluble protein abundance (concentration: 0.5mM): 1.01 ± 0.16

UniProt Q6PII3
NP40-soluble protein abundance (concentration: 0.1mM): 1 ± 0.078 | NP40-soluble protein abundance (concentration: 0.5mM): 0.979 ± 0.058

ERI1 (UniProt Q8IV48)
NP40-soluble protein abundance (concentration: 0.1mM): 1.03 ± 0.051 | NP40-soluble protein abundance (concentration: 0.5mM): 1.09 ± 0.07

GPRIN1 (UniProt Q7Z2K8)
NP40-soluble protein abundance (concentration: 0.1mM): 1 ± 0.072 | NP40-soluble protein abundance (concentration: 0.5mM): 0.963 ± 0.028

RRM2B (UniProt Q7LG56)
NP40-soluble protein abundance (concentration: 0.1mM): 0.996 ± 0.058 | NP40-soluble protein abundance (concentration: 0.5mM): 1.04 ± 0.053

CAND1 (UniProt Q86VP6)
NP40-soluble protein abundance (concentration: 0.1mM): 0.987 ± 0.043 | NP40-soluble protein abundance (concentration: 0.5mM): 0.996 ± 0.024

ARHGAP30 (UniProt Q7Z6I6)
NP40-soluble protein abundance (concentration: 0.1mM): 0.977 ± 0.03 | NP40-soluble protein abundance (concentration: 0.5mM): 1 ± 0.051

UniProt Q6RFH5 and related entries
NP40-soluble protein abundance (concentration: 0.1mM): 0.953 ± 0.065 | NP40-soluble protein abundance (concentration: 0.5mM): 0.99 ± 0.014

UniProt Q75N03 and related entries
NP40-soluble protein abundance (concentration: 0.1mM): 1.03 ± 0.062 | NP40-soluble protein abundance (concentration: 0.5mM): 1.01 ± 0.039

MEPCE (UniProt Q7L2J0)
NP40-soluble protein abundance (concentration: 0.1mM): 1.03 ± 0.077 | NP40-soluble protein abundance (concentration: 0.5mM): 1.06 ± 0.057

C5orf24 (UniProt Q7Z6I8)
NP40-soluble protein abundance (concentration: 0.1mM): 0.955 ± 0.017 | NP40-soluble protein abundance (concentration: 0.5mM): 0.927 ± 0.037

PACS1 (UniProt Q6VY07)
NP40-soluble protein abundance (concentration: 0.1mM): 0.999 ± 0.029 | NP40-soluble protein abundance (concentration: 0.5mM): 0.994 ± 0.02
